Results taken from patent US20150276743A1.
These are yes or no findings as the source states them, for the method shown. In cells and extracts the contact can be indirect. Some results given as binding are weak or reduced against the parent protein; the word gives no strength.

The chains behind the UniProt entries cited, without tags or fusion partners. Residues count along the entry.
UniProt P16144, residues 28-1822: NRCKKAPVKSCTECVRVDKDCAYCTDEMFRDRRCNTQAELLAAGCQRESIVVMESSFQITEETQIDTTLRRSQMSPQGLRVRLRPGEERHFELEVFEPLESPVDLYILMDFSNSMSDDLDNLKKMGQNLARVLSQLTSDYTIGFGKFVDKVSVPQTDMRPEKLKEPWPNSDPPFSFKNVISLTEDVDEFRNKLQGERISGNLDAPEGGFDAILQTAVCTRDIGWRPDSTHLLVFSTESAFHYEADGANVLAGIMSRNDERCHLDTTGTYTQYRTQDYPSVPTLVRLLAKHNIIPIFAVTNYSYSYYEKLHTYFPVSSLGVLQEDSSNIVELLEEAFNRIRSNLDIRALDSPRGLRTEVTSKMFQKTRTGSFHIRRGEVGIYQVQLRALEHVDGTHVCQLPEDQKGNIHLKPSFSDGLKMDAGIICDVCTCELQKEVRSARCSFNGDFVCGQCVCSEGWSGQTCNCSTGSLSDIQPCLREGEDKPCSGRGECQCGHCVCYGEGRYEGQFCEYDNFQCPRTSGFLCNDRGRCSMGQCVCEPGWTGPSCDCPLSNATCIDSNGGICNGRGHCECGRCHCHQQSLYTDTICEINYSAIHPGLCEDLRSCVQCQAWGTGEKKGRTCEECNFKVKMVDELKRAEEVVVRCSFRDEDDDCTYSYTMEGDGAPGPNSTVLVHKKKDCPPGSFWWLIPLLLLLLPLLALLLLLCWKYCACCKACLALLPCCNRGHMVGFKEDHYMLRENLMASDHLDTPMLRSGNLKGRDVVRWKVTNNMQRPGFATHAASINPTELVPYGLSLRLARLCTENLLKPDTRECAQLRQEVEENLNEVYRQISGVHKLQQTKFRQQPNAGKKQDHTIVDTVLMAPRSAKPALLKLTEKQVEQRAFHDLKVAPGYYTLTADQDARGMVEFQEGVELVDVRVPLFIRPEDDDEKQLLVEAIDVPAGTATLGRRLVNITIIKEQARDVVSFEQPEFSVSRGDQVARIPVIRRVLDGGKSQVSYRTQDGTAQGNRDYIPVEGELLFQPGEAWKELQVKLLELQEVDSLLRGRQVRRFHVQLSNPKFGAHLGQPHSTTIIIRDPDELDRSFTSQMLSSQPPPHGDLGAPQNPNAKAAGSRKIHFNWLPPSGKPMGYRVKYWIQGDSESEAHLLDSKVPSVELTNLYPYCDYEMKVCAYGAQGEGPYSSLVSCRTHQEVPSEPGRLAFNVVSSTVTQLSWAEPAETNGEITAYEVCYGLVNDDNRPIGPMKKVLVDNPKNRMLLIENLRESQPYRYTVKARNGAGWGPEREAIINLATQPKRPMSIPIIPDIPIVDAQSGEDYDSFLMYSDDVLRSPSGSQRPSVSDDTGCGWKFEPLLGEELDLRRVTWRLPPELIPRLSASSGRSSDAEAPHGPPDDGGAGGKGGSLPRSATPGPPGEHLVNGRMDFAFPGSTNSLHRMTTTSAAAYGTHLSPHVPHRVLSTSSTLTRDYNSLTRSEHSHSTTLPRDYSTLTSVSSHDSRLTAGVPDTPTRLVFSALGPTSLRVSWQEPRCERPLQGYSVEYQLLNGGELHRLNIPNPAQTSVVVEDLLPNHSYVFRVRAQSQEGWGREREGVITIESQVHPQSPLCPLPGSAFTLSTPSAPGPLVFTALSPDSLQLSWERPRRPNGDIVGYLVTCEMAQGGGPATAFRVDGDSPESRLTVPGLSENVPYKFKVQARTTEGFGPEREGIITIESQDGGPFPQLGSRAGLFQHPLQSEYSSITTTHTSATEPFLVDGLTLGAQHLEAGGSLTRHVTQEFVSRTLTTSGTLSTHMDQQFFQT

Molecular target: integrin β4 subunit (human) (UniProt P16144)
Test: co-immunoprecipitation with G0H3 from 35S-labelled Caco-2/15 cells and keratinocytes, SDS-PAGE

B1: integrin α6 subunit (endogenous, Caco-2/15 cells and keratinocytes) (receptor, human, UniProt P23229-2 24-1073, looked up)
chain: FNLDTREDNVIRKYGDPGSLFGFSLAMHWQLQPEDKRLLLVGAPRAEALPLQRANRTGGLYSCDITARGPCTRIEFDNDADPTSESKEDQWMGVTVQSQGPGGKVVTCAHRYEKRQHVNTKQESRDIFGRCYVLSQNLRIEDDMDGGDWSFCDGRLRGHEKFGSCQQGVAATFTKDFHYIVFGAPGTYNWKGIVRVEQKNNTFFDMNIFEDGPYEVGGETEHDESLVPVPANSYLGFSLDSGKGIVSKDEITFVSGAPRANHSGAVVLLKRDMKSAHLLPEHIFDGEGLASSFGYDVAVVDLNKDGWQDIVIGAPQYFDRDGEVGGAVYVYMNQQGRWNNVKPIRLNGTKDSMFGIAVKNIGDINQDGYPDIAVGAPYDDLGKVFIYHGSANGINTKPTQVLKGISPYFGYSIAGNMDLDRNSYPDVAVGSLSDSVTIFRSRPVINIQKTITVTPNRIDLRQKTACGAPSGICLQVKSCFEYTANPAGYNPSISIVGTLEAEKERRKSGLSSRVQFRNQGSEPKYTQELTLKRQKQKVCMEETLWLQDNIRDKLRPIPITASVEIQEPSSRRRVNSLPEVLPILNSDEPKTAHIDVHFLKEGCGDDNVCNSNLKLEYKFCTREGNQDKFSYLPIQKGVPELVLKDQKDIALEITVTNSPSNPRNPTKDGDDAHEAKLIATFPDTLTYSAYRELRAFPEKQLSCVANQNGSQADCELGNPFKRNSNVTFYLVLSTTEVTFDTPDLDINLKLETTSNQDNLAPITAKAKVVIELLLSVSGVAKPSQVYFGGTVVGEQAMKSEDEVGSLIEYEFRVINLGKPLTNLGTATLNIQWPKEISNGKWLLYLVKVESKGLEKVTCEPQKEINSLNLTESHNSRKKREITEKQIDDNRKFSLFAERKYQTLNCSVNVNCVNIRCPLRGLDSKASLILRSRLWNSTFLEEYSKLNYLDILMRAFIDVTAAAENIRLPNAGTQVRVTVFPSKTVAQYSGVPWWIILVAILAGILMLALLVFILWKCGFFKRNKKDHYDATYHKAEIHAQPSDKERLTSDA
binding: binds
